The results in this text go back to publication PMC11127964.

Chains of the proteins cited; added tags and fusions are not shown.
UniProt A8MS85: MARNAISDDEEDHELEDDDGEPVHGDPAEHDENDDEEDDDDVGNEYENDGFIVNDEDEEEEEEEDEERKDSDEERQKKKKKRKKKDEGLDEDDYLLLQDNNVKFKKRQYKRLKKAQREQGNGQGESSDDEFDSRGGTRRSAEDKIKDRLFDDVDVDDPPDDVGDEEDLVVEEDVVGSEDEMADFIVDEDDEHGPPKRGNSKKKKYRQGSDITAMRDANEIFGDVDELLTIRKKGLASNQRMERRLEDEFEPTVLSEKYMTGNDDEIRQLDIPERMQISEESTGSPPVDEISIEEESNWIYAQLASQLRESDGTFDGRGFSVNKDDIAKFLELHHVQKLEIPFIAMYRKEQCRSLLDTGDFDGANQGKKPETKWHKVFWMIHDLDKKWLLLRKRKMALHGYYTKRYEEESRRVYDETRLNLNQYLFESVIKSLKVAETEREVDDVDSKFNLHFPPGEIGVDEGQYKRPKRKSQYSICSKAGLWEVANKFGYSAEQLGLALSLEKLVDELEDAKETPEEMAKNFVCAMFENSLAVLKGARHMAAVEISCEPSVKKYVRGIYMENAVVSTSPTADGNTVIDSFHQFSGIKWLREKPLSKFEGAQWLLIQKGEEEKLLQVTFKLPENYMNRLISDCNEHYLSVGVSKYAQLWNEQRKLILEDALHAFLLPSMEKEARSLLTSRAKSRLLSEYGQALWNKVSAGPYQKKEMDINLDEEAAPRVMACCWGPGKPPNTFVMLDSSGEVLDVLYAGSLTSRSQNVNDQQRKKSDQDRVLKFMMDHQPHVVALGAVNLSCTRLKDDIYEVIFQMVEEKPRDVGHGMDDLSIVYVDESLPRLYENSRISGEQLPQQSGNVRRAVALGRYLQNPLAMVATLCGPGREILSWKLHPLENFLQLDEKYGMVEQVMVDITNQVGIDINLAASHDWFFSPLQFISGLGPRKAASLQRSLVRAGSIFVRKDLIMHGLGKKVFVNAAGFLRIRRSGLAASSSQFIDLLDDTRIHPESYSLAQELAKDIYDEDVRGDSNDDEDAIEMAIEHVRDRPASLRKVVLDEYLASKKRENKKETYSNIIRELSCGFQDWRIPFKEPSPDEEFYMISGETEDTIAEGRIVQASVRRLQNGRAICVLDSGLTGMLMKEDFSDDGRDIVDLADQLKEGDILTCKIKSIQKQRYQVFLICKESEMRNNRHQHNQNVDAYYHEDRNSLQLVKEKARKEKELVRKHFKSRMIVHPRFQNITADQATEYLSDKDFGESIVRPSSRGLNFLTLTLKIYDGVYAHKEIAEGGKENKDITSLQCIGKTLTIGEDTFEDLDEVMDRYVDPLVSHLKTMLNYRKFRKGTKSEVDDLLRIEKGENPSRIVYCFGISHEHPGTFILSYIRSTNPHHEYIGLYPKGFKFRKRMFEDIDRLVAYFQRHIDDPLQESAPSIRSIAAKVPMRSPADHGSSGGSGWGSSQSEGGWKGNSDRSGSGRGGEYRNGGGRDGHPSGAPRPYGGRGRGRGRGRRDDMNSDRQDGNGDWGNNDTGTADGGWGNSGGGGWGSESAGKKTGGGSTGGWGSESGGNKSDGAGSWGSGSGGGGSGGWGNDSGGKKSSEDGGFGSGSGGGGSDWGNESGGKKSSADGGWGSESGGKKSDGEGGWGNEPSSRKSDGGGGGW

Results are given in words; binding and its absence hold for the method and conditions named. Some entries that bind do so weakly or less than the wild type. Where a sequence is shown, tags or fusion partners need not be part of it.

The assay concerns the target SPT6L (SPT6-like), yeast two-hybrid bait in pGBKT7 (Arabidopsis) (UniProt A8MS85). As to the kind of experiment: two-hybrid; bait SPT6L in pGBKT7, preys in pGADT7, co-transformed into yeast AH109; growth on -Leu/-Trp/-His medium with 10 mM 3-AT.

B1: SPT5L, yeast two-hybrid fusion (protein, UniProt F4JW79 1-1493)
chain: MDRKGKGKQVAGSDSYSGGQKRKNSVEFRDEGLRIKKRKNPEVLQFFEESAEVGYYGGSSDEDDDGLGFLNDMEDEPEVEESSKAGKGEKGKSSFVFPKEEDLNEEEFDRIMEERYKPGSGFLRYADDDIKDAIEMDALAPTSKDPPIWKVKCAIGRERRSVFCLMHKFVELRKIGTKLEIISVFSVDHVKGFIFIEADKEHDVLEACKSLVGIYATRMVLLPKAETPNLLTVQKKTKKVSEGTWARVKNGKYKGDLAQIVAVSDTRNKALIKLIPRIDIQALTQKYGGGVTVQKGQTPAPRLISSSELEEFRPLIQVRRDRDTGITFEHLDSLMLKDGYLYKKVSLDSISSWGVIPTKDELLKFTPVDRKETGDVEWISEIYGEERKKKILPTCREGGKGEGSGGGKGEGSGGGKGEGSRGGKGEGSSDFKSESSYELYNLVCFSRKDFGLIVGVDDKGDGYKVLKEGIDGPVVVTVGKKEMQNGPFDSKFTALDLNKKQISVNDVVKISKGPSEGKQGVVRQVYRGIIFLYDESEEENGGYFCCKSQSCEKVKLFTEESNEKTGGFDGTAFEDFVSSPKSPLSPEKEWQPRERYNSSNQGDIGSTYSIGQKLRIRVGPLKGYLCRVIALRYSDVTVKLDSQHKIFTVKSEHLAEVRDRNTVLSTSGDAGTGSFQPFGMLGTESSTGDWAIGAGTSSEGGNWNIGGPSTDSHESLNIERNMVQLCREKNPWGGSKPTSDVSPTVADDNTSAWANAAAENKPASASDQPGGWNPWGKTPASEAGTVSGWGDTSASNVEASSWEKQGASTSNVADLGSWGTHGGSSGGNKQDEDSVWGKLCEASESSQKKEESSWGKKGGSDGESSWGNKDGNSSASKKDGVSWGQQDKGSDESKGGSAWSNQCGDFGSGKKKDGSSGWNKSAEDSNANSKGVPDWGQPNDGSSWGKKGDGAASWGKKDDGGSWGKKDDGNKDDGGSSWGKKDDGQKDDGGSSWEKKFDGGSSWGKKDDGGSSWGKKDDGGSLWGKKDDGGSSWGKEDDGGSLWGKKDDGESSWGKKDDGESSWGKKDDGGSSWGKKDEGGYSEQTFDRGGRGFGGRRGGGRRGGRDQFGRGSSFGNSEDPAPWSKPSGGSSWGKQDGDGGGSSWGKENDAGGGSSWGKQDNGVGSSWGKQNDGSGGGSSWGKQNDAGGGSSWGKQDSGGDGSSWGKQDGGGDSGSAWGKQNNTSGGSSWGKQSDAGGGSSWGKQDGGGGGSSWGKQDGGGGSGSAWGKQNETSNGSSWGKQNDSGGGSSWGKQDGGGGGSSWGKQNDGGGGSSWGKQGDGGSKPWNEHSGGGRGFGERRGGGGFRGGRNQSGRGGRSFDGGRSSSWKTDNQENTWKSDQSGGSDWKKGWGEDSNNSKPSGSSAGGCAGNWPSWDTNSKKETNDKPGDDSKSAWGTSNDQVNTDNNNDSWNKKPNNDVGTSGEADNAWGGKTNAVAPSPSGSAAWGTGDKKTGW
Take B1: the binding result is “binds”.

B2: NRP(D/E)4, Pol IV and V shared subunit, yeast two-hybrid prey in pGADT7 (protein, UniProt Q6DBA5 1-205)
chain: MSEKGGKGLKSSLKSKDGGKDGSSTKLKKGRKIHFDQRTPPANYKILNVSSDQQPFQSSAAKCGKSDKPTKSSKNSLHSFELKDLPENAECMMDCEAFQILDGIKGQLVGLSEDPSIKIPVSYDRALAYVESCVHYTNPQSVRKVLEPLKTYGISDGEMCVIANASSESVDEVLAFIPSLKTKKEVINQPLQDALEELSKLKKSE
For the molecule B2, the binding result was “binds”.
